# Some results were stated once for a whole list of compounds, not compound by compound.
# Experiments:
# [1] = system: Plutella xylostella (Diamond back moth) ryanodine receptor, containing the G4946E resistance mutation; assay: In vitro assay: calcium fluorescence (Fluo-8 NW, FDSS) in human embryonic kidney cells expressing the ryanodine receptor; type: cell-based; settings: HEK cells expressing P. xylostella RyR G4946E; normalized against cyantraniliprole
# [2] = system: Plutella xylostella resistant strain R4 (RyR mutation G4946E); assay: Resistant Plutella xylostella R4 (Diamond back moth) larvicide L1, feeding/contact; type: in vivo; settings: at 50 ppm or below; artificial diet, 24-well plates, mortality 8 days after infestation
# Description: Resistant Plutella xylostella R^4 (Diamond back moth) larvicide L1, feeding/contact 24-well microtiter plates with artificial diet were treated with aqueous test solutions prepared from 10′000 ppm DMSO stock solutions by pipetting. After drying, around 30 Plutella eggs were pipetted through a plastic stencil onto a gel blotting paper and the plate was closed with it. The samples were assessed for mortality in comparison to untreated samples 8 days after infestation.
# CTPR was used as standard and a resistance factor of 242 was obtained for this strain
# Plutella xylostella resistant strain R4 originated in the lab in 2021 from crossing the R1 strain with a lab-reared susceptible P. xylostella strain (SUS). R4 can be reared and tested on artificial diet and also carries the RyR mutation G4946E conferring resistance to diamides. The strain is selected approximately every two weeks with chlorantraniliprole.
# [3] = system: multi-resistant Plutella xylostella larvae having the G4946E resistance mutation (strain R1); assay: Resistant Plutella xylostella R1 (Diamond Back Moth) Larvicide L3, Feeding/Contact; type: in vivo; settings: at 50 ppm or below, sprayed Chinese cabbage leaves, mortality and growth regulation 4 days after infestation
# Description: Resistant Plutella xylostella R1 (Diamond Back Moth) Larvicide L3, Feeding/Contact
# Chinese cabbage plants were sprayed with diluted test solutions in an application chamber. Cut off leaves were placed into petri dishes with wetted filter paper and infested 1 day after application with 10 L3 multi-resistant Plutella xylostella larvae having the G4946E resistance mutation. Samples were assessed 4 days after infestation for mortality and growth regulation. CTPR was used as standard and a resistance factor of 146 was obtained for this strain.
# Plutella xylostella resistant strain R1 originally collected from Taiwan in 2012 that carries the RyR mutation G4946E conferring resistance to diamides. The strain is reared on cabbage plants (Brassica aleracea) and selected approximately every two weeks with chlorantraniliprole.
SMILES,ratio REC50 = EC50 (compound)/EC50 (cyantraniliprole) [1],control of the resistant strain of Plutella xylostella R4 [2],control of the resistant strain of Plutella xylostella R1 [3]
"NC(=O)c1cc2cc(Br)ccc2c(Br)c1NC(=O)c1cc(OCC(F)(F)F)nn1-c1ncccc1Cl [P.1, 2-(3-chloro-2-pyridyl)-N-(1,6-dibromo-3-carbamoyl-2-naphthyl)-5-(2,2,2-trifluoroethoxy)pyrazole-3-carboxamide]",≤ 1,at least 80%,at least 80%
"NC(=O)c1cc2cc(Br)ccc2c(Cl)c1NC(=O)c1cc(Br)nn1-c1ncccc1Cl [P.27, 5-bromo-N-(6-bromo-3-carbamoyl-1-chloro-2-naphthyl)-2-(3-chloro-2-pyridyl)pyrazole-3-carboxamide]",≤ 1,at least 80%,at least 80%
"Cc1ccc2c(Cl)c(NC(=O)c3cc(C(F)(F)F)nn3-c3ncccc3Cl)c(C(N)=O)cc2c1 [P.29, N-(3-carbamoyl-1-chloro-6-methyl-2-naphthyl)-2-(3-chloro-2-pyridyl)-5-(trifluoromethyl)pyrazole-3-carboxamide]",≤ 1,at least 80%,–
"Cc1c(NC(=O)c2cc(C(F)(F)F)nn2-c2ncccc2Cl)c(C(N)=O)cc2nn(C)cc12 [P.34, 5-[[2-(3-chloro-2-pyridyl)-5-(trifluoromethyl)pyrazole-3-carbonyl]amino]-2,4-dimethylindazole-6-carboxamide]",–,at least 80%,at least 80%
"Cn1cc2c(Cl)c(NC(=O)c3cc(C(F)(F)F)nn3-c3ncccc3Cl)c(C(N)=O)cc2n1 [P.36, 4-chloro-5-[[2-(3-chloro-2-pyridyl)-5-(trifluoromethyl)pyrazole-3-carbonyl]amino]-2-methyl-indazole-6-carboxamide]",–,at least 80%,at least 80%
"NC(=O)c1cc2cc(Br)ccc2c(Cl)c1NC(=O)c1cc(Cn2cc3c(Cl)cccc3n2)nn1-c1ncccc1Cl [P.38, N-(6-bromo-3-carbamoyl-1-chloro-2-naphthyl)-5-[(4-chloroindazol-2-yl)methyl]-2-(3-chloro-2-pyridyl)pyrazole-3-carboxamide]",–,at least 80%,–
"N#Cc1ccc2c(Cl)c(NC(=O)c3cc(OCC(F)(F)F)nn3-c3ncccc3Cl)c(C(N)=O)cc2c1 [P.40, N-(3-carbamoyl-1-chloro-6-cyano-2-naphthyl)-2-(3-chloro-2-pyridyl)-5-(2,2,2-trifluoroethoxy)pyrazole-3-carboxamide]",–,at least 80%,–
"NC(=O)c1cc2cc(Br)ccc2c(Cl)c1NC(=O)c1cc(Cn2nnc(-c3ccc(C(F)(F)F)cc3)n2)nn1-c1ncccc1Cl [P.41, N-(6-bromo-3-carbamoyl-1-chloro-2-naphthyl)-2-(3-chloro-2-pyridyl)-5-[[5-[4-(trifluoromethyl)phenyl]tetrazol-2-yl]methyl]pyrazole-3-carboxamide]",–,at least 80%,at least 80%
"Cc1nc2cc(C(N)=O)c(NC(=O)c3cc(OCC(F)(F)F)nn3-c3ncccc3Cl)c(C)c2s1 [P.43, 6-[[2-(3-chloro-2-pyridyl)-5-(2,2,2-trifluoroethoxy)pyrazole-3-carbonyl]amino]-2,7-dimethyl-1,3-benzothiazole-5-carboxamide]",≤ 1,at least 80%,–
"Cc1nc2cc(C(N)=O)c(NC(=O)c3cc(Br)nn3-c3ncccc3Cl)c(C)c2o1 [P.46, 6-[[5-bromo-2-(3-chloro-2-pyridyl)pyrazole-3-carbonyl]amino]-2,7-dimethyl-1,3-benzoxazole-5-carboxamide]",–,at least 80%,at least 80%
"Cc1nc2cc(C(N)=O)c(NC(=O)c3cc(OCC(F)(F)F)nn3-c3ncccc3Cl)c(C)c2o1 [P.47, 6-[[2-(3-chloro-2-pyridyl)-5-(2,2,2-trifluoroethoxy)pyrazole-3-carbonyl]amino]-2,7-dimethyl-1,3-benzoxazole-5-carboxamide]",–,at least 80%,–
